13 compounds from the supplement of paper PMC4604168 (melanoma cell lines) can be followed below.

Molecules are shown by their SMILES. Some of the results follow. Single values are uncertain, as repeats are few or missing.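 Cells were imaged in 1,536-well plates, and nuclei stained with an antibody against cleaved PARP were counted against all DNA-stained nuclei to give the apoptosis fraction. Screening doses were chosen to leave most cells alive, and resting and induced cleaved-PARP levels differ strongly between cell lines.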

Test systems include WM115; WM1716; WM1745; WM3526; WM3619; WM451Lu.
Common to all, as to assay: cleaved PARP positive nuclei fraction relative to DMSO control; melanoma cells; higher = more apoptosis
Settings in all cases: library dose: low library concentration; 72 h

As for `Cn1c(Nc2ccc(C(F)(F)F)cc2)nc2cc(Oc3ccnc(-c4ncc(C(F)(F)F)[nH]4)c3)ccc21` + C=CCn1c(=O)c2cnc(Nc3ccc(N4CCN(C)CC4)cc3)nc2n1-c1cccc(C(C)(C)O)n1 [MK1775] (first compound 0.08 µM, partner dose 0.02 µM), the “cleaved PARP positive nuclei fraction” value with WM115 amounted to 2100%; with WM1716 it was 194%; with WM1745, 159%; in the experiment on WM3526 it was 142%; in the experiment with WM3619, 135%; with WM451Lu, 65.8%.
Take `NC(=O)Nc1cc(-c2cccc(F)c2)sc1C(=O)N[C@H]1CCCNC1` + O=c1cc(-c2cccc3c2Sc2ccccc2S3)oc(N2CCOCC2)c1 [KU55933] (first compound 0.02 µM, partner dose 1 µM): the “cleaved PARP positive nuclei fraction” value is 124% in the experiment on WM115; 116% in the experiment on WM1716; 94.3% with WM1745; 124% with WM3526; 198% in the experiment with WM3619; 37% in the experiment on WM451Lu.
In the case of `Cn1cncc1[C@@](N)(c1ccc(Cl)cc1)c1ccc2c(c1)c(-c1cccc(Cl)c1)cc(=O)n2C` [tipifarnib] + COc1cc2ncnc(Nc3ccc(Oc4ccccc4)cc3)c2cc1OC [SrcI1] (first compound 0.01 µM, partner dose 2 µM), the “cleaved PARP positive nuclei fraction” value in the experiment on WM115 turned out to be 462%; in the experiment on WM1716, 41.9%; in the experiment with WM1745, 116%; in the experiment on WM3526 it was 90.8%; in the experiment with WM3619 it was 98.5%; in the experiment with WM451Lu, 63.4%.
Take `CC1(C)NC(=O)N(c2ccc([N+](=O)[O-])c(C(F)(F)F)c2)C1=O` [nilutamide] + OCCn1cc(-c2cnc3nnn(Cc4ccc5ncccc5c4)c3n2)cn1 [PF04217903] (first compound 1 µM, partner dose 1 µM): the “cleaved PARP positive nuclei fraction” value came to 105% in the experiment on WM115; 112% in the experiment with WM1716; 105% in the experiment with WM1745; 65% in the experiment on WM3526; 88.1% in the experiment with WM3619; 52.9% in the experiment with WM451Lu.
Consider `OCCn1cc(-c2cnc3nnn(Cc4ccc5ncccc5c4)c3n2)cn1` + Cn1cc(/C=C2\C(=O)Nc3cccnc32)c2ccccc21 [GW441756] (first compound 1 µM, partner dose 0.4 µM), for which the “cleaved PARP positive nuclei fraction” value worked out at 91.2% with WM115; 91.3% in the experiment with WM1716; 174% in the experiment on WM1745; 181% in the experiment with WM3526; 75.5% with WM3619; 26.4% in the experiment on WM451Lu.
Regarding `CC1(C)NC(=O)N(c2ccc([N+](=O)[O-])c(C(F)(F)F)c2)C1=O` [nilutamide] + N#Cc1c(O)c2c(-c3ccc(-c4ccccc4O)cc3)csc2[nH]c1=O [A769662] (first compound 1 µM, partner dose 2 µM), the “cleaved PARP positive nuclei fraction” value in the experiment with WM115 was found to be 89.4%; with WM1716, 136%; in the experiment on WM1745, 102%; in the experiment on WM3526 it was 66.6%; in the experiment on WM3619, 71.8%; in the experiment with WM451Lu, 114%.
`Nc1cccc2c1CN(C1CCC(=O)NC1=O)C2=O` (stereo not drawn) [lenalidomide] + O=C(CCCCCCC(=O)Nc1ccccc1)NO [vorinostat] (first compound 1 µM, partner dose 0.08 µM): the “cleaved PARP positive nuclei fraction” value came out at 58.4% in the experiment on WM115; 76.9% in the experiment on WM1716; 82.7% in the experiment with WM1745; 47% in the experiment on WM3526; 98% with WM3619; 341% in the experiment on WM451Lu.
For the compound `OCc1c[nH]c2ccccc12` [Indole-3-carbinol] + C#Cc1cccc(Nc2ncnc3cc(OCCOC)c(OCCOC)cc23)c1 [erlotinib] (first compound 0.8 µM, partner dose 0.8 µM), the “cleaved PARP positive nuclei fraction” value was 169% in the experiment with WM115; 40.4% with WM1716; 110% in the experiment with WM1745; 45.6% in the experiment with WM3526; 85.3% in the experiment on WM3619; 89.3% in the experiment with WM451Lu.
As to `OCc1c[nH]c2ccccc12` [Indole-3-carbinol] + O=C(Nc1cccc(Cl)c1)Nc1ncc(CCNc2ncnc3ccsc23)s1 [SNS314] (first compound 0.8 µM, partner dose 0.0008 µM), the “cleaved PARP positive nuclei fraction” value with WM115 stood at 80.8%; in the experiment with WM1716, 39.6%; in the experiment with WM1745, 71.4%; with WM3526 it was 49.5%; in the experiment on WM3619, 67.2%; in the experiment with WM451Lu, 81.1%.
In the case of `Cc1nc(Nc2ncc(C(=O)Nc3c(C)cccc3Cl)s2)cc(N2CCN(CCO)CC2)n1` [dasatanib] + O=c1cc(-c2cccc3c2Sc2ccccc2S3)oc(N2CCOCC2)c1 [KU55933] (first compound 0.004 µM, partner dose 1 µM), the “cleaved PARP positive nuclei fraction” value in the experiment on WM115 was found to be 119%; in the experiment with WM1716, 172%; with WM1745 it was 134%; in the experiment with WM3526 it was 90.4%; in the experiment on WM3619, 99.2%; with WM451Lu it was 114%.
Take `C[C@]1(c2nc3c(C(N)=O)cccc3[nH]2)CCCN1` [Veliparib] + OCCn1cc(-c2cnc3nnn(Cc4ccc5ncccc5c4)c3n2)cn1 [PF04217903] (first compound 1.4 µM, partner dose 1 µM): the “cleaved PARP positive nuclei fraction” value in the experiment with WM115 worked out at 217%; in the experiment on WM1716, 59%; in the experiment with WM1745, 99.7%; in the experiment on WM3526 it was 58.9%; with WM3619, 101%; in the experiment with WM451Lu, 86.8%.
For `Nc1cccc2c1CN(C1CCC(=O)NC1=O)C2=O` (stereo not drawn) [lenalidomide] + NC(=O)Nc1cc(-c2cccc(F)c2)sc1C(=O)N[C@H]1CCCNC1 [AZD7762] (first compound 1 µM, partner dose 0.02 µM), the “cleaved PARP positive nuclei fraction” value was 76.6% in the experiment on WM115; 149% in the experiment on WM1716; 97.3% with WM1745; 61.3% in the experiment on WM3526; 128% in the experiment on WM3619; 97.5% in the experiment on WM451Lu.
For `COc1cc(Nc2ncc(F)c(Nc3ccc4c(n3)NC(=O)C(C)(C)O4)n2)cc(OC)c1OC` [Tamatinib] + O=C(O)c1ccc(-c2c[nH]c3ncc(-c4ccccc4)cc23)cc1C1CCCC1 [GSK650394] (first compound 0.4 µM, partner dose 0.16 µM), the “cleaved PARP positive nuclei fraction” value in the experiment on WM115 came out at 85.3%; in the experiment with WM1716, 64.2%; in the experiment on WM1745, 112%; with WM3526, 34.8%; in the experiment on WM3619 it was 88.7%; with WM451Lu, 81.6%.
